# Test results taken from the supplement of paper PMC12067093, “Discovery and optimisation of a covalent ligand for TRIM25 and its application to targeted protein ubiquitination” (Chemical Science, 2025).
# Protein sequences, listed by entry. Tags and fused reporters are not part of them. Lines headed by an entry give the natural chain unless they say otherwise; changes in a name come on top.
# UniProt P30153, whole entry, looked up: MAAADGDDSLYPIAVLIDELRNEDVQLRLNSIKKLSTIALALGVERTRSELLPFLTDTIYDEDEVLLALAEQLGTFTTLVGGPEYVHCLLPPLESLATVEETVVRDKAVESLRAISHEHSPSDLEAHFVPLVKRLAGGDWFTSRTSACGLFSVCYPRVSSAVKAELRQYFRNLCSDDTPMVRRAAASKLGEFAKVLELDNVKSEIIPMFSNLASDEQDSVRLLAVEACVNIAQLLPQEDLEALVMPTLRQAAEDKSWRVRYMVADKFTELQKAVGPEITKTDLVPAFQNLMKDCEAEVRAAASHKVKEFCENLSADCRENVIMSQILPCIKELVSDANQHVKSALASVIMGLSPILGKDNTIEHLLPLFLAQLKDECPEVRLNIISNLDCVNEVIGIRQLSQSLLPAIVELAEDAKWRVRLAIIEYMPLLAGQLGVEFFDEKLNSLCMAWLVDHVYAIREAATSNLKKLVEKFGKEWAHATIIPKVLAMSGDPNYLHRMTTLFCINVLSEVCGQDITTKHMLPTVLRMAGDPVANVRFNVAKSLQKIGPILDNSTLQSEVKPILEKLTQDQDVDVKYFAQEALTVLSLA
# UniProt P50897: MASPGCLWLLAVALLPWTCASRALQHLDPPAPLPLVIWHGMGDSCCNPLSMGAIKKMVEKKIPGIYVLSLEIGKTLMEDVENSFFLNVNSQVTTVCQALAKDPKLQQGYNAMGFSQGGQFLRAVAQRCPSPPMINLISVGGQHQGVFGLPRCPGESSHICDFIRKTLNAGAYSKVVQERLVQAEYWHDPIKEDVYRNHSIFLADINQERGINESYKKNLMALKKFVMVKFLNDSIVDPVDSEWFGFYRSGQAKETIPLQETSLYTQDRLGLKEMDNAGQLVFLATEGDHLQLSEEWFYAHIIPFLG
# UniProt O60927: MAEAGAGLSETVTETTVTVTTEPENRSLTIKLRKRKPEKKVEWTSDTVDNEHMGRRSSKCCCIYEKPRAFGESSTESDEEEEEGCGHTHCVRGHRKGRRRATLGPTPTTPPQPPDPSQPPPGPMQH
# UniProt Q9HCU5: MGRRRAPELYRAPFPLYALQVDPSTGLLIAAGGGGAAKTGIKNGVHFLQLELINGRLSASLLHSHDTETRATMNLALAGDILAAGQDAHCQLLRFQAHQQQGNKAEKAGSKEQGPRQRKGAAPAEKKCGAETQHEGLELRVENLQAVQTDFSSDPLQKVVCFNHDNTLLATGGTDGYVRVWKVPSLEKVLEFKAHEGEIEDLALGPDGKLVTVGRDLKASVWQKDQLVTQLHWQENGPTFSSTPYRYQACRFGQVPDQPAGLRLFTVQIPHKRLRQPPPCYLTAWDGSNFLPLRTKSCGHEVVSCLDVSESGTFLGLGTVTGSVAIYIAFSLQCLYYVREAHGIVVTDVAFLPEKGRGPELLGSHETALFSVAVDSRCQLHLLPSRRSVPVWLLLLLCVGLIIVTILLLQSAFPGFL
# UniProt O43663: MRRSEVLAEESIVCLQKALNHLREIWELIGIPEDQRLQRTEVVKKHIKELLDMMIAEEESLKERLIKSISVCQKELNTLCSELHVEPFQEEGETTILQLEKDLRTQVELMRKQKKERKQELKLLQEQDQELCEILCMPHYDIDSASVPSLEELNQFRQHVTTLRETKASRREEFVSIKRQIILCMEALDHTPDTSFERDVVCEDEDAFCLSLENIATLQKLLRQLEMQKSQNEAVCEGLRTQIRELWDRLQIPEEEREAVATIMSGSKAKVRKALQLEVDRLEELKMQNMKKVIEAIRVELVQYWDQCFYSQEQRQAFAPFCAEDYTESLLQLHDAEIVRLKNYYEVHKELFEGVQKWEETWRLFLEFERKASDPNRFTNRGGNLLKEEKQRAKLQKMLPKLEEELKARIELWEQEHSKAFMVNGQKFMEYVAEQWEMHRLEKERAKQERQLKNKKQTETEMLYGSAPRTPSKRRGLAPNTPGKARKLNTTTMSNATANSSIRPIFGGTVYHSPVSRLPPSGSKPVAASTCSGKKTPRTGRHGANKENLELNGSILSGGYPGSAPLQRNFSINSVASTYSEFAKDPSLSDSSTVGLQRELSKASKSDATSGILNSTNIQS
# UniProt Q9ULR3: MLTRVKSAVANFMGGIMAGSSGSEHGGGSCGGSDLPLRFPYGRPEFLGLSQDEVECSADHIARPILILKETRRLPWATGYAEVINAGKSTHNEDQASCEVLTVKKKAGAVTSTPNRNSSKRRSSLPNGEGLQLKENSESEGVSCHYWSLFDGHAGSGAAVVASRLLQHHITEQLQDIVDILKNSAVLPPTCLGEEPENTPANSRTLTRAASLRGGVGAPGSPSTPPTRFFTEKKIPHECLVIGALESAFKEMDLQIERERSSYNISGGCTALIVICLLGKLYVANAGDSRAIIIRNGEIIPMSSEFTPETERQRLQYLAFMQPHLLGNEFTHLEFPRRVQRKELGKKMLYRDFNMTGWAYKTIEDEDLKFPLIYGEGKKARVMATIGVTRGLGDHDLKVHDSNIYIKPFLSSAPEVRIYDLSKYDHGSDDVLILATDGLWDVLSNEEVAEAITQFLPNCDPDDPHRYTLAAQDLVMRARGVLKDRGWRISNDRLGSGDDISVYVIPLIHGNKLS
# UniProt Q8TF05: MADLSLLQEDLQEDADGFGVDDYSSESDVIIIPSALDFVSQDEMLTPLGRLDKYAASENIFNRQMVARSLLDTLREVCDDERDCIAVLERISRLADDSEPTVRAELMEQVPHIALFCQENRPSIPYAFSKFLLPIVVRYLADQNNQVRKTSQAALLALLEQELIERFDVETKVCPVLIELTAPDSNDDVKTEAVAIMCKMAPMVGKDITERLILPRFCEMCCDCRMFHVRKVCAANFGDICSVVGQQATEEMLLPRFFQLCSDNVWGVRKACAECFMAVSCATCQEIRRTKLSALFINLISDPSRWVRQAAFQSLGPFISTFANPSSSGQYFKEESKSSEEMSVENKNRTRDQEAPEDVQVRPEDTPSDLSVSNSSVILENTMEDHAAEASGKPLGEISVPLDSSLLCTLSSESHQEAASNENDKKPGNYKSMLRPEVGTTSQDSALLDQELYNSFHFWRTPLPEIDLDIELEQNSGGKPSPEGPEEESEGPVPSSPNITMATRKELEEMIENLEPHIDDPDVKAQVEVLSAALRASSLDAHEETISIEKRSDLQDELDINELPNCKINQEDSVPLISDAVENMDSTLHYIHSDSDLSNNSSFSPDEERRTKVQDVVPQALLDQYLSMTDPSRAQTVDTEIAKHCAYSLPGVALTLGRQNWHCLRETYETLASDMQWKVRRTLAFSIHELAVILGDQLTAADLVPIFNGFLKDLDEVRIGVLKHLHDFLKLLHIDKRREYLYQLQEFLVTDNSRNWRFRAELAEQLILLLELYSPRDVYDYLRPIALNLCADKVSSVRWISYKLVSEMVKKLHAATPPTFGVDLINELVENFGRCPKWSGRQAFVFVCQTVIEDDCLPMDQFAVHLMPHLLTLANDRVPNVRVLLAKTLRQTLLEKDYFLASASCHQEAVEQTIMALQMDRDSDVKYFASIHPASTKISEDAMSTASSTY
# UniProt P30044: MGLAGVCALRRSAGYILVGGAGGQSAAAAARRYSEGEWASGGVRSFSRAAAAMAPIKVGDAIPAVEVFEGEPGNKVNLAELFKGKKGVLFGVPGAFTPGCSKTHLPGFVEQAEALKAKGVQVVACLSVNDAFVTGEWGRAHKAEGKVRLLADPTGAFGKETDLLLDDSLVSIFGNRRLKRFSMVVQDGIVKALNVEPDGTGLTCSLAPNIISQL
# UniProt Q6ZMI0: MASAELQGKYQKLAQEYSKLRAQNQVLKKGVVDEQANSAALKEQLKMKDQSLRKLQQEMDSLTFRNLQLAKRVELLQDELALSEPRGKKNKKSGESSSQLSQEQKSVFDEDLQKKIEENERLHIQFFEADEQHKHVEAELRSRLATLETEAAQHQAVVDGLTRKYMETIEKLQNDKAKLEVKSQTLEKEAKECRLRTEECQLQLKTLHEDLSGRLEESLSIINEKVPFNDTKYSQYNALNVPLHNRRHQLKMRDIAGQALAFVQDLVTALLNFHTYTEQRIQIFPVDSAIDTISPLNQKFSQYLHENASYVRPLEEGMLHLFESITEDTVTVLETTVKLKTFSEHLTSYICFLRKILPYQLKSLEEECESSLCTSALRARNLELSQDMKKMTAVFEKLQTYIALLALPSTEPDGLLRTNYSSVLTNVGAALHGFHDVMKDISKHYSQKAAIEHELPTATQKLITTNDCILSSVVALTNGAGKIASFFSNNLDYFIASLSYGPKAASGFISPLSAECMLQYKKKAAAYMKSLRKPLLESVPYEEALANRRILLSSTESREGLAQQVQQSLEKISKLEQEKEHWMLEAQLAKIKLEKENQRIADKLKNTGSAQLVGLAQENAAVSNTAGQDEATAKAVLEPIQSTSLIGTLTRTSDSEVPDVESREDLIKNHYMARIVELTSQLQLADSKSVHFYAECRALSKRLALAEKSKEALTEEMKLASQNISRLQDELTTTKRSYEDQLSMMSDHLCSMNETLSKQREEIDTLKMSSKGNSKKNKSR
# UniProt Q86WC6: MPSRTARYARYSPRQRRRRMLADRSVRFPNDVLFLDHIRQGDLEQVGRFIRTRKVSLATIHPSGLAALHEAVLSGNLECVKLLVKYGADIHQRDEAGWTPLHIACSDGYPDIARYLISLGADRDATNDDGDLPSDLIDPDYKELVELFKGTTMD
# UniProt Q4J6C6, whole entry, looked up: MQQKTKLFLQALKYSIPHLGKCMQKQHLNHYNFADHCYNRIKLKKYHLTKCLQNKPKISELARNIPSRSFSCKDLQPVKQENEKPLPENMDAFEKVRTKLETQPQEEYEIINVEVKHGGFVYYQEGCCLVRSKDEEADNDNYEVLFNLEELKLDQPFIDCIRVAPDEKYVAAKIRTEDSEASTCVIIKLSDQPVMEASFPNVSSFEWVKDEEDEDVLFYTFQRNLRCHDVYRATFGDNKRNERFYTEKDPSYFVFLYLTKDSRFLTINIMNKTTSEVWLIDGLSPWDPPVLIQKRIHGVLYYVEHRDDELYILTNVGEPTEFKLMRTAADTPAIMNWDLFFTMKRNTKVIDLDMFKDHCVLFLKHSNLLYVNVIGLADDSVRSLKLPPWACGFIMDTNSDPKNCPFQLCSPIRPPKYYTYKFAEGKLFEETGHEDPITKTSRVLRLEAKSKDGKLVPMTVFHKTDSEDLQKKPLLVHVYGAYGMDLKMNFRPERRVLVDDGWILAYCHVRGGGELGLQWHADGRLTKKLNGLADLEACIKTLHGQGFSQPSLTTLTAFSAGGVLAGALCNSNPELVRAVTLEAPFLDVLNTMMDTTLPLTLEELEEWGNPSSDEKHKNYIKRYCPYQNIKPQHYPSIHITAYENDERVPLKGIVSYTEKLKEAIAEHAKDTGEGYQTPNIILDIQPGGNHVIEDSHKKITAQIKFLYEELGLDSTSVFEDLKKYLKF
# UniProt O75688: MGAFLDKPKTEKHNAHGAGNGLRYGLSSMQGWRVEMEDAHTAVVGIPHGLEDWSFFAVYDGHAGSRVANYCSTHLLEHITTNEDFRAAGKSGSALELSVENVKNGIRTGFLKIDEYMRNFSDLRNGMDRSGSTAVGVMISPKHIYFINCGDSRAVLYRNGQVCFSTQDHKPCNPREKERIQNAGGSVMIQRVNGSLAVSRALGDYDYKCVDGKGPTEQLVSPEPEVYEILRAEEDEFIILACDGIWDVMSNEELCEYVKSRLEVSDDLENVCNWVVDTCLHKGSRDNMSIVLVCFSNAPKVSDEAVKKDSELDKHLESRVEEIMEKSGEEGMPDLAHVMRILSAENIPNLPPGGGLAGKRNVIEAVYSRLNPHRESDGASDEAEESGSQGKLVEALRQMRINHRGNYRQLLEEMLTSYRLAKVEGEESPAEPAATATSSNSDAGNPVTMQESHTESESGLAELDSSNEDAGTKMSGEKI
# UniProt P48147: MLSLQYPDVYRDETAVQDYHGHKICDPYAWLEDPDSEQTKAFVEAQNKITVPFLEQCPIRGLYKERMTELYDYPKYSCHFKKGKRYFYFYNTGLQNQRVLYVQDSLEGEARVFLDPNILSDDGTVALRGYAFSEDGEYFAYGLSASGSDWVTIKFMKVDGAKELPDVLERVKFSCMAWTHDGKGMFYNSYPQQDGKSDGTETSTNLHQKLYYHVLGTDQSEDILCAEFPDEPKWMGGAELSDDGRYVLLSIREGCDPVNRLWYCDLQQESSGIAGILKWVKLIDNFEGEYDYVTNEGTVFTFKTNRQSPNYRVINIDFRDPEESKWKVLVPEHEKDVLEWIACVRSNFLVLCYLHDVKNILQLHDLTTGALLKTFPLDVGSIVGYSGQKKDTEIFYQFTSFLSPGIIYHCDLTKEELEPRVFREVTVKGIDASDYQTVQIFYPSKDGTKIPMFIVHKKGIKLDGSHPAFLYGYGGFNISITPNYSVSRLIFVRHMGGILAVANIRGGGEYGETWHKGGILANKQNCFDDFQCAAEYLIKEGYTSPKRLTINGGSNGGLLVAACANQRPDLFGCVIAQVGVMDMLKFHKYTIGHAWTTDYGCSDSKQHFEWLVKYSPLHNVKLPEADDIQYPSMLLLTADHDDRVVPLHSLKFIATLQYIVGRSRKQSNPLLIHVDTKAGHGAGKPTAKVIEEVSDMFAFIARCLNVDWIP
# Some of the results follow.
# Compound: CC1Cc2ccccc2N1C(=O)C1CCCN(C1)C(=O)CCl (mixture of isomers) [TRIM25 ligand 11 (diastereomer mixture)]
# Experiment: probe-labelled cysteine peptide fold change vs DMSO (competition) (log2 fold change); higher = less target engagement (more negative = stronger competition)
# Conditions: THP-1, incubation time: 4 h
# 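Note: competitive chemoproteomic profiling in live THP-1 cells with an iodoacetamide desthiobiotin (IA-DTB) probe, comparing probe-labelled peptide intensities in compound-treated cells against DMSO-treated controls.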
Target,probe-labelled cysteine peptide fold change (10 µM),probe-labelled cysteine peptide fold change (50 µM)
PPP2R1A_P30153_504_MTTLFCINVLSEVCGQDITTK (UniProt P30153),-0.121,0.114
PPP4C_P60510_193_KQEVPHDGPMCDLLWSDPEDTTGWGVSPR (UniProt P60510),-0.118,-0.252
PRCP_P42785_233_SGPHCSESIHR (UniProt P42785),0.424,0.189
PPT1_P50897_152+160_CPGESSHICDFIRK (UniProt P50897),-0.276,-0.457
PPP1CA_P62136_202_IMRPTDVPDQGLLCDLLWSDPDKDVQGWGENDR (UniProt P62136),-0.164,-0.218
PRAME_P78395_188_EGACDELFSYLIEK (UniProt P78395),-0.14,-0.184
PPP1R3D_O95685_26_SLSCLSDLDGGVALEPR (UniProt O95685),-0.077,-0.198
PPP1R3D_O95685_41_ACRPPGSPGR (UniProt O95685),0.000234,-0.127
PPM1A_P35813_268_VCNEVVDTCLYK (UniProt P35813),0.0218,-0.0672
PPP4R3A_Q6IN85_180_LLELFHVCEDLENIEGLHHLYEIIK (UniProt Q6IN85),0.203,0.265
PPP1R11_O60927_62_CCCIYEK (UniProt O60927),-0.0503,0.00157
PREB_Q9HCU5_128_CGAETQHEGLELR (UniProt Q9HCU5),0.00495,-0.0857
PPM1L_Q5SGD2_340_GCPDNITVMVVK (UniProt Q5SGD2),-0.0116,-0.0742
PRC1_O43663_80_ELNTLCSELHVEPFQEEGETTILQLEK (UniProt O43663),-0.0424,0.0399
PPM1H_Q9ULR3_239_IPHECLVIGALESAFK (UniProt Q9ULR3),0.0379,0.00172
PRDX2_P32119_172_LVQAFQYTDEHGEVCPAGWKPGSDTIKPNVDDSK (UniProt P32119),0.0559,0.0191
PPIL4_Q8WUA2_40_YYNYCLIHNVQR (UniProt Q8WUA2),0.242,0.263
PPP4R1_Q8TF05_84_EVCDDERDCIAVLER (UniProt Q8TF05),0.0784,0.0159
PREB_Q9HCU5_280_LRQPPPCYLTAWDGSNFLPLR (UniProt Q9HCU5),-0.019,-0.165
PRDX5_P30044_100_KGVLFGVPGAFTPGCSK (UniProt P30044),-0.0954,-0.177
PPP1R21_Q6ZMI0_468_LITTNDCILSSVVALTNGAGK (UniProt Q6ZMI0),0.0696,-0.0235

Target,probe-labelled cysteine peptide fold change (10 µM),probe-labelled cysteine peptide fold change (50 µM)
PPP1R15B_Q5SWA1_686_IQETEDAIGYCLTFEHR (UniProt Q5SWA1),-0.074,-0.272
PPIL4_Q8WUA2_392_THHCSEEK (UniProt Q8WUA2),0.112,-0.0364
PPM1G_O15355_351_CVVSEAGK (UniProt O15355),0.0181,-0.115
PPT1_P50897_152+160_CPGESSHICDFIR (UniProt P50897),0.0171,-0.274
PPP1CC_P36873_202_RIMRPTDVPDQGLLCDLLWSDPDKDVLGWGENDR (UniProt P36873),0.028,-0.145
PPP2R5E_Q16537_106_GCLTEQTYPEVVR (UniProt Q16537),0.146,0.11
PPIH_O43447_131_CDWLDGK (UniProt O43447),-0.0259,0.162
PPP1R27_Q86WC6_79_VSLATIHPSGLAALHEAVLSGNLECVK (UniProt Q86WC6),0.024,-0.236
PRC1_O43663_236_SQNEAVCEGLR (UniProt O43663),0.0852,0.203
PPP6R1_Q9UPN7_216_LIEQIHPSKDENQHSNASQSLCDIIR (UniProt Q9UPN7),-0.143,-0.425
PPP3CB_P16298_162_GNHECR (UniProt P16298),0.073,0.158
PPP6C_O00743_262_LVTVWSAPNYCYR (UniProt O00743),0.0237,0.121
PPP6R2_O75170_87_FKYPNTACELLTCDVPQISDR (UniProt O75170),-0.00427,-0.00558
PPIP5K2_O43314_488_VQLTYLPHGCPK (UniProt O43314),0.00421,-0.0556
PPP2R1A_P30153_512_MTTLFCINVLSEVCGQDITTK (UniProt P30153),0.0527,0.183
PPP2R1B_P30154_389_DECPDVR (UniProt P30154),0.204,0.149
PPOX_P50336_258_GQPVCGLSLQAEGR (UniProt P50336),-0.0354,-0.0716
PPP4R3B_Q5MIZ7_182_LLQLFQACENLENTEGLHHLYEIIR (UniProt Q5MIZ7),0.295,0.24
PPP1CB_P62140_201_IMRPTDVPDTGLLCDLLWSDPDKDVQGWGENDR (UniProt P62140),0.138,-0.226
PREPL_Q4J6C6_160_LDQPFIDCIR (UniProt Q4J6C6),0.0512,0.0865
PRAM1_Q96QH2_629_RGEILEVIEFTSNEEMLCRDPK (UniProt Q96QH2),-0.103,-0.0439

Target,probe-labelled cysteine peptide fold change (10 µM),probe-labelled cysteine peptide fold change (50 µM)
PRC1_O43663_531_LPPSGSKPVAASTCSGK (UniProt O43663),0.00194,0.0522
PPP2CB_P62714_20_ELDQWVEQLNECK (UniProt P62714),-0.0508,0.0214
PREPL_Q4J6C6_409_NCPFQLCSPIRPPK (UniProt Q4J6C6),0.0424,0.114
PPP1R21_Q6ZMI0_516_AASGFISPLSAECMLQYK (UniProt Q6ZMI0),0.107,-0.0801
PPP5C_P53041_11_AMAEGERTECAEPPRDEPPADGALK (UniProt P53041),0.0324,-0.264
PPP2R1B_P30154_516_MTTLFCINALSEACGQEITTK (UniProt P30154),0.143,0.0485
PPP1R21_Q6ZMI0_696_SVHFYAECR (UniProt Q6ZMI0),-0.013,0.0172
PRDX5_P30044_100_GVLFGVPGAFTPGCSK (UniProt P30044),-0.259,-0.367
PPP4R3A_Q6IN85_135_DPSVDITQDLVDESEEERFDDMSSPGLELPSCELSR (UniProt Q6IN85),-0.199,0.0962
PPME1_Q9Y570_347_FQMQVLPQCGHAVHEDAPDK (UniProt Q9Y570),-0.064,-0.103
PPIP5K2_O43314_338_YYDDCAK (UniProt O43314),-0.000116,0.0833
PPIP5K2_O43314_306_QTVCGFDLLR (UniProt O43314),-0.0383,0.256
PPP6R3_Q5H9R7_467_IANCIVHSTDK (UniProt Q5H9R7),0.0404,-0.0255
PREB_Q9HCU5_128_KCGAETQHEGLELR (UniProt Q9HCU5),-0.0571,-0.0833
PPP1CC_P36873_62_ICGDIHGQYYDLLR (UniProt P36873),0.154,0.0745
PPP1R18_Q6NYC8_611_ALIVDESCR (UniProt Q6NYC8),0.0833,-0.185
PPM1B_O75688_279_SRLEVSDDLENVCNWVVDTCLHK (UniProt O75688),0.231,0.186
PPP1R21_Q6ZMI0_351_TFSEHLTSYICFLR (UniProt Q6ZMI0),0.201,0.0173
PPP2R1A_P30153_377_DECPEVR (UniProt P30153),0.315,0.248
PPP4R1_Q8TF05_198_TEAVAIMCK (UniProt Q8TF05),0.164,0.158
PPP6R2_O75170_37_EHVTLQELMDEDDILQECK (UniProt O75170),0.0642,-0.0464

Target,probe-labelled cysteine peptide fold change (10 µM),probe-labelled cysteine peptide fold change (50 µM)
PREP_P48147_25_ICDPYAWLEDPDSEQTK (UniProt P48147),0.208,-0.0381
PPP6R3_Q5H9R7_830_LSTSQDAACK (UniProt Q5H9R7),-0.1,-0.219
PPM1H_Q9ULR3_239_KIPHECLVIGALESAFK (UniProt Q9ULR3),0.159,0.0827
PPP1R12A_O14974_48_VKFDDGAVFLAACSSGDTDEVLK (UniProt O14974),-0.0752,-0.163
PPP4C_P60510_162_IFCVHGGLSPSIQTLDQIR (UniProt P60510),0.208,0.0465
PPP2R1A_P30153_317_EFCENLSADCR (UniProt P30153),-0.0459,-0.0231
PPP1R10_Q96QC0_463_VPWVCPR (UniProt Q96QC0),-0.029,-0.298
PPM1B_O75688_149_HIYFINCGDSR (UniProt O75688),-0.0973,-0.0801
PPIP5K1_Q6PFW1_675_VCDQVFALIENLTHQIR (UniProt Q6PFW1),-0.168,-0.021
PPP1R12C_Q9BZL4_109_AVLDSTNADGISALHQACIDENLEVVR (UniProt Q9BZL4),-0.168,-0.0132
PREB_Q9HCU5_90_ATMNLALAGDILAAGQDAHCQLLR (UniProt Q9HCU5),-0.174,-0.089
PPP1R8_Q12972_58_NPDLCDFTIDHQSCSR (UniProt Q12972),0.235,-0.0582
PPT1_P50897_152_CPGESSHICDFIR (UniProt P50897),0.119,-0.171
PPP6R3_Q5H9R7_216_LVEIVHPSQEEDRHSNASQSLCEIVR (UniProt Q5H9R7),-0.144,-0.238
PPIP5K2_O43314_49_QIVVGICSMAK (UniProt O43314),-0.09,-0.209
PREB_Q9HCU5_161_VVCFNHDNTLLATGGTDGYVR (UniProt Q9HCU5),0.182,0.111
PPP2R5C_Q13362_513_ALEAHCR (UniProt Q13362),-0.187,-0.119
PREP_P48147_526_QNCFDDFQCAAEYLIK (UniProt P48147),0.319,0.196
PPP6R3_Q5H9R7_519_NTVDLVTTCHIHSSSDDEIDFK (UniProt Q5H9R7),0.48,0.025
